Laboratory results as given in the supplement of paper PMC12823440, “Inhibitors supercharge kinase turnover through native proteolytic circuits” (Nature, 2025).
Some of the results follow. Hit calls seldom repeat between salt and free forms of one compound.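 Kinases were expressed as nanoluciferase fusions in K562 cells and luminescence was read every 4 h between 2 and 18 h as percent of control, DMSO set to 100% and a positive control to 0%. A time point counts as decreased when the signal drops significantly (2 sigma). The hit call is the authors' own, does not follow from the count of time points alone, and its rule is not shown.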

Sequences of proteins named here, by UniProt entry; tags and fusion partners are left off. A change or cut given only in a name is not applied to a line headed by its entry.
UniProt Q15208: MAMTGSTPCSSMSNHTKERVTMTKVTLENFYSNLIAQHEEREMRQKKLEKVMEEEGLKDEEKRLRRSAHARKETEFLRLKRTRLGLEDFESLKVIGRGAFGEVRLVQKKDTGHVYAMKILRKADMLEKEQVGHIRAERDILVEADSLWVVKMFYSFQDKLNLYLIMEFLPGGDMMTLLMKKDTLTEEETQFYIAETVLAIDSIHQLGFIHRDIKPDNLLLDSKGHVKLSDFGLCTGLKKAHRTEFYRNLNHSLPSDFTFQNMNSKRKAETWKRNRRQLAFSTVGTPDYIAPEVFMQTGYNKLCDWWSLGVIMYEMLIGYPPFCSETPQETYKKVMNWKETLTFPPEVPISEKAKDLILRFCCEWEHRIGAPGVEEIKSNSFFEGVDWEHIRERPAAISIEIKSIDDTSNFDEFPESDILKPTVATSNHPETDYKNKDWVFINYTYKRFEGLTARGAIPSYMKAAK
UniProt P42680: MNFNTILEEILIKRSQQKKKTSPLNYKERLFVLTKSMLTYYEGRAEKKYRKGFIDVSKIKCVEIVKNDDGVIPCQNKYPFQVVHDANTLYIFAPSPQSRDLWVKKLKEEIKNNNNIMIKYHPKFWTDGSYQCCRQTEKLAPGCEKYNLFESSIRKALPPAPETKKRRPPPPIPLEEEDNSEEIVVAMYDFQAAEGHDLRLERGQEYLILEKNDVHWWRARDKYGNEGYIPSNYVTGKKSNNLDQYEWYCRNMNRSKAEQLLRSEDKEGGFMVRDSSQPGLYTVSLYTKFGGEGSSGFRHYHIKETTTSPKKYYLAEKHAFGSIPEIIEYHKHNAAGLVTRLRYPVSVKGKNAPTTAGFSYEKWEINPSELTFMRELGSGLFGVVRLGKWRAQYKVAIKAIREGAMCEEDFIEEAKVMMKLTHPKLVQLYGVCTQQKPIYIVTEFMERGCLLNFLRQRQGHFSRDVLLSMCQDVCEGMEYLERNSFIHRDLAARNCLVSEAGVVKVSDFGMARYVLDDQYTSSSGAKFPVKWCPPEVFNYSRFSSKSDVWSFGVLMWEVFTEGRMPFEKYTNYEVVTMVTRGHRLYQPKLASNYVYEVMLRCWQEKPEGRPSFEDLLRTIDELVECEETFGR
UniProt P29597: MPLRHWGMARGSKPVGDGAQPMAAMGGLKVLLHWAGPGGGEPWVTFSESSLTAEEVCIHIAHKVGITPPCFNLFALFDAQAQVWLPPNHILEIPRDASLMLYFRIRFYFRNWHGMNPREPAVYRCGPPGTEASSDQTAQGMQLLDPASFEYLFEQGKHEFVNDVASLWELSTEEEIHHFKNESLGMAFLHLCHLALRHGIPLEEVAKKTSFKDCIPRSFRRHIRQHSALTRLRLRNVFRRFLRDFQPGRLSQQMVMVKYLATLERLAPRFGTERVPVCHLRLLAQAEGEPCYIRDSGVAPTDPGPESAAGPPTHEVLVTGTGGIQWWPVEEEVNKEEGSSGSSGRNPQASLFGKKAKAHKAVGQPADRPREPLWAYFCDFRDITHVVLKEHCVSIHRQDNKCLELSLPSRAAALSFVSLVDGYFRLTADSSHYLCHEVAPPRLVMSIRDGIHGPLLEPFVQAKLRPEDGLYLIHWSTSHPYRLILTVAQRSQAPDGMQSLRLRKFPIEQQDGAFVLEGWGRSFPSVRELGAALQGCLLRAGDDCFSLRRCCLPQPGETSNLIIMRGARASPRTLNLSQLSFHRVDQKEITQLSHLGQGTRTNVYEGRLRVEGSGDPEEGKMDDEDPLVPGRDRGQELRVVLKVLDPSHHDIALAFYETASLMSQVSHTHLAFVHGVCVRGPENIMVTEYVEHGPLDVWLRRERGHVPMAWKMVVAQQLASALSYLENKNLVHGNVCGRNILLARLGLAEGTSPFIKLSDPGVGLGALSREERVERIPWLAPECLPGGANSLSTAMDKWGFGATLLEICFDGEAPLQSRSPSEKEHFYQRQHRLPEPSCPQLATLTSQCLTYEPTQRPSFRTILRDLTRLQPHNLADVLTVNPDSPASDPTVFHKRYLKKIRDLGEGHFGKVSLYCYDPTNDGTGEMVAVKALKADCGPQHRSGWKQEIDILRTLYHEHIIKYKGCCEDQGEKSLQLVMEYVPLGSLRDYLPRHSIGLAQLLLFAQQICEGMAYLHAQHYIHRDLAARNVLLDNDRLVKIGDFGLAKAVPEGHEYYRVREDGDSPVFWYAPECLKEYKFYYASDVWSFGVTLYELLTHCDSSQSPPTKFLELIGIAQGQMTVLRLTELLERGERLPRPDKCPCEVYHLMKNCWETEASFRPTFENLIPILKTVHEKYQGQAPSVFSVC
UniProt Q6PHR2: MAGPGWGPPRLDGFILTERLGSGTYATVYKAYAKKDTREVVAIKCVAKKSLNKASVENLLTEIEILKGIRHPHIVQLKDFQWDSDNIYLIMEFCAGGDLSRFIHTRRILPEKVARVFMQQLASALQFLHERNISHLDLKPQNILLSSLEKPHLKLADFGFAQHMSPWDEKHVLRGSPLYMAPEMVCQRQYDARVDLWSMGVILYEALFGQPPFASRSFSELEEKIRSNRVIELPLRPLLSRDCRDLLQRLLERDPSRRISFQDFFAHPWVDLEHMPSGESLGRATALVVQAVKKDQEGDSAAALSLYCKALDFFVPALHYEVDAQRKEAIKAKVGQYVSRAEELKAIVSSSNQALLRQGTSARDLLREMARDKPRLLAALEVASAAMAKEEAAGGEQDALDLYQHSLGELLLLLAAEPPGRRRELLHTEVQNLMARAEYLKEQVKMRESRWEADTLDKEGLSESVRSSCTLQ
UniProt P07947, whole entry, looked up: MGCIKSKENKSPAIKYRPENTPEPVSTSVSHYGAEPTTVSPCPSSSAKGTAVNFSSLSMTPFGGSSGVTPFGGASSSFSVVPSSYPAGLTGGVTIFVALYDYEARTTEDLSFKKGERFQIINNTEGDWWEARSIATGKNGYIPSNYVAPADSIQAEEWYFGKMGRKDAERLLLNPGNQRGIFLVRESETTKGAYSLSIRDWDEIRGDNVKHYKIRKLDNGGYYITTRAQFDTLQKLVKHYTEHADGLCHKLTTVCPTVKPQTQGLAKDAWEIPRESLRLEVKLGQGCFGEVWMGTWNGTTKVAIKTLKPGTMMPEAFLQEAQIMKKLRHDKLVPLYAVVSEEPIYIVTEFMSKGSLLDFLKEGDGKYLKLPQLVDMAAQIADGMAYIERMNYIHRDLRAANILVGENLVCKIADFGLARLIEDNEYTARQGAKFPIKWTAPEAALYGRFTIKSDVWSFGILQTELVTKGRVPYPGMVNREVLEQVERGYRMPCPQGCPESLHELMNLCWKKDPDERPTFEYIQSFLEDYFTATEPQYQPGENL
UniProt P43403: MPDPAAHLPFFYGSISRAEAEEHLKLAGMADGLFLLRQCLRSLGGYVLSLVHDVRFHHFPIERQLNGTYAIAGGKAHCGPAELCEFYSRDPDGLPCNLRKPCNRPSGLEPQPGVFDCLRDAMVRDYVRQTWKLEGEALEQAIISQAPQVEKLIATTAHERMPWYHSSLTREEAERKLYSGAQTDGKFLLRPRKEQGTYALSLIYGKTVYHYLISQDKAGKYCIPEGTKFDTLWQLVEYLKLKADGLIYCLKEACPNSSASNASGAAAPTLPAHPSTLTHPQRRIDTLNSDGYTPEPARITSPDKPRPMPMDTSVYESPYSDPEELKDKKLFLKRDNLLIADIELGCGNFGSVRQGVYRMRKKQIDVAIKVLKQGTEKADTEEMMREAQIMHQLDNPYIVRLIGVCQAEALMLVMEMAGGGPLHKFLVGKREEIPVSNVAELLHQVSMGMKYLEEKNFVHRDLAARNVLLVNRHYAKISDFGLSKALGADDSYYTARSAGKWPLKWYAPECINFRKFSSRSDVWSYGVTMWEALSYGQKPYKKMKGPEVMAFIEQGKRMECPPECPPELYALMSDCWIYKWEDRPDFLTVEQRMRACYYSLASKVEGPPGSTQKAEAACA
UniProt P00519, whole entry: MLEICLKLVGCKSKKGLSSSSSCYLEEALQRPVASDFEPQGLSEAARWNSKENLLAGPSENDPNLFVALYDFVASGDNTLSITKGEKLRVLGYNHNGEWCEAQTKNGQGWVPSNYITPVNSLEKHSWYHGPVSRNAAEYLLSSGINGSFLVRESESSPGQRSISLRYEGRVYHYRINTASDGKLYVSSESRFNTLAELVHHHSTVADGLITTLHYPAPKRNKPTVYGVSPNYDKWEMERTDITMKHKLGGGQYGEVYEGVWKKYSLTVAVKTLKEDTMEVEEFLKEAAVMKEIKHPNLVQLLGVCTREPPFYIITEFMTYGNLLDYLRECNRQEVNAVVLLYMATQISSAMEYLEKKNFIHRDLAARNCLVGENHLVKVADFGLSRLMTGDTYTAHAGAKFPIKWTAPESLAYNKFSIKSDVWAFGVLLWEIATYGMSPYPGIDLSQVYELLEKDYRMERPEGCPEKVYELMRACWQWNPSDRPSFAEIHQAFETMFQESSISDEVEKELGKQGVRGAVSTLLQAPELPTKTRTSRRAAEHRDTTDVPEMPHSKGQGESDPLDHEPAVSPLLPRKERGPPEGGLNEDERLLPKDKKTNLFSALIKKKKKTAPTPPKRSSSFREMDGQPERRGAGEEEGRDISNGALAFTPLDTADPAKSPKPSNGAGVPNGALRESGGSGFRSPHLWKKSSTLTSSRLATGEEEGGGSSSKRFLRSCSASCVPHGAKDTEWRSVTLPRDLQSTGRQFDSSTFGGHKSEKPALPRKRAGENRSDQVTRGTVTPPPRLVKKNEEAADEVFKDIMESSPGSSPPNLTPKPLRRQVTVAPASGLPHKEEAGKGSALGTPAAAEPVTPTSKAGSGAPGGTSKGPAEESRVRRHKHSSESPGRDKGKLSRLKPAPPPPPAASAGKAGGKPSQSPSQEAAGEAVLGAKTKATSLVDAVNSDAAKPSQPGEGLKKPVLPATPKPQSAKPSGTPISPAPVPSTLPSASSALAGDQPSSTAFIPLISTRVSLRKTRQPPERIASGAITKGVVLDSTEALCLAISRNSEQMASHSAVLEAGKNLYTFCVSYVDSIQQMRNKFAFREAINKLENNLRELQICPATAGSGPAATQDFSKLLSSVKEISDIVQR
UniProt P31749: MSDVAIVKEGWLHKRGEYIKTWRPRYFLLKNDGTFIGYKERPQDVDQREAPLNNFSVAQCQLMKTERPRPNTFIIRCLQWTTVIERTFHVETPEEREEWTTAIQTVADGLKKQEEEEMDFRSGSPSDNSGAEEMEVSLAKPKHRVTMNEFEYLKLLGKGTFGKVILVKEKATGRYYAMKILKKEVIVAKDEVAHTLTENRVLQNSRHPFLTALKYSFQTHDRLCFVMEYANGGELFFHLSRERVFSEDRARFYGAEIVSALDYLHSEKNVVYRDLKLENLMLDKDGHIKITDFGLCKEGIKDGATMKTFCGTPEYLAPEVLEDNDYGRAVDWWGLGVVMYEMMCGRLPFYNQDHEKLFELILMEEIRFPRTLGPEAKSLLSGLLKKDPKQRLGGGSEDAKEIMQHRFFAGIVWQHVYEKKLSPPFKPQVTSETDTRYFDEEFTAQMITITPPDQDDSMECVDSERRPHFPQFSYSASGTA

Legend:
Details in all cases: K562; 2-18 h
[1] = target: STK38 (UniProt Q15208); experiment: kinase-Nluc reporter destabilization hit call (1 = scored as downregulated) (binary); higher = compound decreases kinase abundance
[2] = target: SYK (UniProt P43405); experiment: as above
[3] = target: TEC (UniProt P42680); experiment: as above
[4] = target: TYK2 (UniProt P29597); experiment: as above
[5] = target: ULK3 (UniProt Q6PHR2); experiment: as above
[6] = target: YES1 (UniProt P07947); experiment: as above
[7] = target: ZAK (UniProt Q9NYL2); experiment: as above
[8] = target: ZAP70 (UniProt P43403); experiment: as above
[9] = target: ABL1 (UniProt P00519); experiment: number of time points (of 5) at which kinase-Nluc abundance scored as decreased, DMSO-normalised (count); higher = more persistent destabilization
[10] = target: AKT1 (UniProt P31749); experiment: as above

SMILES | kinase-Nluc reporter destabilization hit call [1] | kinase-Nluc reporter destabilization hit call [2] | kinase-Nluc reporter destabilization hit call [3] | kinase-Nluc reporter destabilization hit call [4] | kinase-Nluc reporter destabilization hit call [5] | kinase-Nluc reporter destabilization hit call [6] | kinase-Nluc reporter destabilization hit call [7] | kinase-Nluc reporter destabilization hit call [8] | number of time points [9] | number of time points [10]
Cc1nc(NC(=O)N2CCC[C@H]2C(N)=O)sc1-c1ccnc(C(C)(C)C(F)(F)F)c1 [Alpelisib] (2.5 µM) | inactive: 0 | inactive: 0 | inactive: 0 | inactive: 0 | inactive: 0 | inactive: 0 | inactive: 0 | inactive: 0 | 0 | 0
CCNC(=O)Nc1ccc(-c2nc3c(c(N4CCOC[C@@H]4C)n2)CCN(C2COC2)C3)cc1 (2.5 µM) | inactive: 0 | inactive: 0 | inactive: 0 | – | inactive: 0 | inactive: 0 | inactive: 0 | inactive: 0 | 0 | 0
CC(C)=CCC[C@](C)(O[C@@H]1O[C@H](CO[C@@H]2O[C@H](CO)[C@@H](O)[C@H](O)[C@H]2O)[C@@H](O)[C@H](O)[C@H]1O)[C@H]1CC[C@]2(C)[C@@H]1[C@H](O)C[C@@H]1[C@@]3(C)CC[C@H](O[C@@H]4O[C@H](CO)[C@@H](O)[C@H](O)[C@H]4O[C@@H]4O[C@H](CO)[C@@H](O)[C@H](O)[C@H]4O)C(C)(C)[C@@H]3CC[C@]12C [Ginsenoside Rb1] (10 µM) | inactive: 0 | inactive: 0 | inactive: 0 | inactive: 0 | inactive: 0 | inactive: 0 | inactive: 0 | inactive: 0 | 0 | 0
Cc1ncc(-c2cc(F)c(O)c(F)c2)cc1-c1cc(F)c(O)c(F)c1 (10 µM) | inactive: 0 | inactive: 0 | inactive: 0 | inactive: 0 | inactive: 0 | inactive: 0 | inactive: 0 | inactive: 0 | 0 | 0
Cc1ccc(Nc2cc(N[C@@H]3CCCC[C@@H]3N)nnc2C(N)=O)nc1C (2 µM) | inactive: 0 | – | inactive: 0 | inactive: 0 | inactive: 0 | inactive: 0 | inactive: 0 | inactive: 0 | 0 | 0
CCCCNc1ncc(C(=O)NCc2ccc(-n3ccnc3)cc2)c(NC2CCC(O)CC2)n1 (configuration not stated) (10 µM) | inactive: 0 | inactive: 0 | inactive: 0 | inactive: 0 | inactive: 0 | inactive: 0 | inactive: 0 | inactive: 0 | 5 | 0
CC1(C)CN(C(=O)c2ccc(-c3cccc4nc(NC(=O)C5CC5)nn34)cc2)C1 [Solcitinib] (10 µM) | – | inactive: 0 | inactive: 0 | inactive: 0 | inactive: 0 | inactive: 0 | inactive: 0 | inactive: 0 | 0 | 0
NC(=O)c1c(NC(=O)C2CC2)sc2c1CCCC2 (10 µM) | inactive: 0 | inactive: 0 | inactive: 0 | inactive: 0 | inactive: 0 | inactive: 0 | inactive: 0 | inactive: 0 | 0 | 0
CC(=O)O/N=C1/C(c2c(O)[nH]c3cc(Br)ccc23)=Nc2ccccc21 [BIO-acetoxime] (10 µM) | inactive: 0 | inactive: 0 | inactive: 0 | inactive: 0 | inactive: 0 | inactive: 0 | inactive: 0 | inactive: 0 | 0 | 0
O=CN1CCN(c2ccc(C=C3C(=O)Nc4ccccc43)cc2)CC1 (10 µM) | inactive: 0 | inactive: 0 | inactive: 0 | inactive: 0 | inactive: 0 | inactive: 0 | inactive: 0 | inactive: 0 | 0 | 0
CN1CCC(Nc2ccc(C(=O)Nc3cc(-c4ccc5c(c4)OCO5)[nH]n3)cc2)CC1 (10 µM) | inactive: 0 | inactive: 0 | inactive: 0 | inactive: 0 | inactive: 0 | inactive: 0 | inactive: 0 | inactive: 0 | 2 | 0
CCCCC(=O)OCC(=O)[C@]1(O)Cc2c(O)c3c(c(O)c2[C@@H](O[C@H]2C[C@H](NC(=O)C(F)(F)F)[C@H](O)[C@H](C)O2)C1)C(=O)c1c(OC)cccc1C3=O [Valrubicin] (10 µM) | inactive: 0 | inactive: 0 | inactive: 0 | inactive: 0 | inactive: 0 | inactive: 0 | inactive: 0 | inactive: 0 | 0 | 0
COc1ccc(CN2CCC(c3ccc4nc(C(=O)N5CCN(Cc6ccc(C(F)(F)F)cc6)CC5)[nH]c4c3)CC2)cn1 (2.5 µM) | inactive: 0 | inactive: 0 | inactive: 0 | inactive: 0 | inactive: 0 | inactive: 0 | inactive: 0 | inactive: 0 | 0 | 0
N#CC(=C(/N)Sc1ccccc1N)/C(C#N)=C(\N)Sc1ccccc1N (10 µM) | inactive: 0 | inactive: 0 | inactive: 0 | inactive: 0 | active: 1 | inactive: 0 | inactive: 0 | inactive: 0 | 0 | 0

Fetched one by one from the list above, two records:
SMILES | kinase-Nluc reporter destabilization hit call [1] | kinase-Nluc reporter destabilization hit call [2] | kinase-Nluc reporter destabilization hit call [3] | kinase-Nluc reporter destabilization hit call [4] | kinase-Nluc reporter destabilization hit call [5] | kinase-Nluc reporter destabilization hit call [6] | kinase-Nluc reporter destabilization hit call [7] | kinase-Nluc reporter destabilization hit call [8] | number of time points [9] | number of time points [10]
Cc1ccc(Nc2cc(N[C@@H]3CCCC[C@@H]3N)nnc2C(N)=O)nc1C (2 µM) | inactive: 0 | – | inactive: 0 | inactive: 0 | inactive: 0 | inactive: 0 | inactive: 0 | inactive: 0 | 0 | 0
CC(C)=CCC[C@](C)(O[C@@H]1O[C@H](CO[C@@H]2O[C@H](CO)[C@@H](O)[C@H](O)[C@H]2O)[C@@H](O)[C@H](O)[C@H]1O)[C@H]1CC[C@]2(C)[C@@H]1[C@H](O)C[C@@H]1[C@@]3(C)CC[C@H](O[C@@H]4O[C@H](CO)[C@@H](O)[C@H](O)[C@H]4O[C@@H]4O[C@H](CO)[C@@H](O)[C@H](O)[C@H]4O)C(C)(C)[C@@H]3CC[C@]12C [Ginsenoside Rb1] (10 µM) | inactive: 0 | inactive: 0 | inactive: 0 | inactive: 0 | inactive: 0 | inactive: 0 | inactive: 0 | inactive: 0 | 0 | 0
